Source: patent US20250003969A1, “METHODS TO IDENTIFY AND TREAT SUBJECTS HAVING CORTICOSTEROID-RESISTANT INFLAMMATORY DISEASES” (priority 2013, published 2025)
Entries after “also recorded” stand apart in the source; their conditions may differ. At least one compound was matched to its structure with a doubt left.

Test system: peripheral blood monocytes from asthmatics
Assay: In vitro response to corticosteroids in the presence of bacteria or LPS, monocytes (real time PCR)
Type: cell-based, human
Settings: 10^−6 M DEX 3 h

**Q.** How did the “MKP-1 mRNA induction by DEX” value (monocytes cultured with H. parainfluenzae vs media, FIG. 6F, FIG. 4C) turn out when `C[C@@H]1C[C@H]2[C@@H]3CCC4=CC(=O)C=C[C@]4(C)[C@@]3(F)[C@@H](O)C[C@]2(C)[C@@]1(O)C(=O)CO` [DEX, dexamethasone] was run?
**A.** significant inhibition; also recorded: significantly reduced

**Q.** And the “IL-8 mRNA suppression by DEX” value (monocytes stimulated with H. parainfluenzae vs media, FIG. 6D)?
**A.** significantly reduced
